The test deals with T1, galactose transporter MglA fused to YFP (E. coli) (UniProt P0AAG8).
T1 sequence: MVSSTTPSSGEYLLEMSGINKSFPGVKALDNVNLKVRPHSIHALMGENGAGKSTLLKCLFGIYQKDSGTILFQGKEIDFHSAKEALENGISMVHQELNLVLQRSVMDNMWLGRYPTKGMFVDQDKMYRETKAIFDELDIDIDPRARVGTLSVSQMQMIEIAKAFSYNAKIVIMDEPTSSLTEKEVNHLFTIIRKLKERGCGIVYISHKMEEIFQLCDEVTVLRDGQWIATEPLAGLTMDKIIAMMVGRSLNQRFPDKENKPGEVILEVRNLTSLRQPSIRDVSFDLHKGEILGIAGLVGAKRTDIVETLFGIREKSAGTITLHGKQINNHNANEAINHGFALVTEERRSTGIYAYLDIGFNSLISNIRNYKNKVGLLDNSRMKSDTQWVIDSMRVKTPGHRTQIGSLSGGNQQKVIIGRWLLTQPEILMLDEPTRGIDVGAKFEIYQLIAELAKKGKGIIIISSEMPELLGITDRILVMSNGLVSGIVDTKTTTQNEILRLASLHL
The test is described as follows: FRET or BRET; live E. coli MG1655 cells co-expressing EIIA^Glc-CFP and MglA-YFP, attached to poly-lysine coated slides in a flow-through chamber; YFP/CFP ratio by microscopy, population and single cells; equilibrated in M9 buffer, stimulated with 100 μM glucose (also pyruvate); 22 °C. On the technique in general: BRET reads energy transfer from a luciferase to a nearby fluorophore.

Chains of the proteins cited; added tags and fusions are not shown.
UniProt P69783: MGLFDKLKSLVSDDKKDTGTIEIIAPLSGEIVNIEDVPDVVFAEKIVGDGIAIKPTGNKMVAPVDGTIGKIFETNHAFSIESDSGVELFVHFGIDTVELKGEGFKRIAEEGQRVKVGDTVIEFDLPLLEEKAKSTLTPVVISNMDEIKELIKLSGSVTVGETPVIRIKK

No constants are given. Whether binding was seen depends on the method and setting. Binding seen in cells or lysates may run through a third protein. Some results given as binding are weak or reduced against the parent protein; the word gives no strength. Sequences can lack the tags named with a protein.

For the substance “EIIA^Glc fused to CFP (from UniProt P69783 1-169)”, the binding result was “binds”.
